# Construct, isoform or probe ends are uncertain for at least one entry. For some assays here: Negatives hold for the conditions tested. For some assays here: At least one verdict rests on a figure or table, not on a statement of the authors. For some assays here: Protein sequences can lack the tags named with them.
# Tests used:
# [1] = test system: GapR6KtoE (Caulobacter crescentus); test: EMSA; conditions: 0.425 uM tetramer, 1.7 uM DNA; EMSA: 10 mM Tris pH 7.5, 50 mM NaCl, 1 mM EDTA; 8% gel in 0.5x TBE pH 8.3 at 4 C; recombinant protein
# [2] = target: T1, GapR (Caulobacter crescentus) (UniProt Q9A385); test: analytical SEC; conditions: 6.25 uM tetramer, 20 uM DNA; recombinant protein
# T1 sequence (looked up, limits assumed): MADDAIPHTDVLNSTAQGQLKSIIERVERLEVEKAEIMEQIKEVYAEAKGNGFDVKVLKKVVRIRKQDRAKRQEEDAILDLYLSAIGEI
sequence,measurement,setting,value
GTTAAGCAACCGTTAACGG (double strand) [19 bp oligonucleotide (19mer)],binding result,[1],no binding
same,binding result,[2],binds
